Assay results published in patent US20260191749A1, “COMPOSITION AND PROCESS OF MAKING BIO-BASED UPCYCLED OILS IN FLOW REACTORS” (RiKarbon, Inc., priority 2022, published 2026).

Assay: Bio-based carbon, ASTM D6866-21 Method B (AMS)
Assay type: physicochemical

Row | SMILES | Bio-based carbon
1 | CCCCCCCCCCCC(CCCCC)CCCCC [RKBA-22] | 100%
2 | CCCCCCC(CCCCC)CCCCC [RKBA-17] | 100%
